Measured values: patent publication US20120115163A1 (published 2012)

Test: general procedure: peptide synthesis; Merrifield Boc-Phe resin (0.57 mmol/g), Wang Fmoc-Phe resin (0.76 mmol/g) or 2-chlorotrityl chloride resin (1.5 mmol/g)
Settings: whole synthesis, water/acetonitrile

Final HPLC purity, >99%:
H-Val-Tyr-Ile-His-Pro-β3hPhe-OH, H-Val-Tyr-Ile-His-β2hPro-Phe-OH, H-Val-Tyr-Ile-His-β3hPro-Phe-OH, H-Val-Tyr-β2hLeu-His-Pro-Phe-OH, H-Val-Tyr-β3hIle-His-Pro-Phe-OH, H-Val-β3hTyr-Ile-His-Pro-Phe-OH, H-β2hVal-Tyr-Ile-His-Pro-Phe-OH, H-β2hVal-Tyr-Ile-His-Pro-β3hPhe-OH, H-β3hVal-Tyr-Ile-His-Pro-Phe-OH

The same purity stands for every peptide and may come from a single statement.
